Reference: publication PMC7826843
Results are given in words; binding and its absence hold for the method and conditions named. Binding seen in cells or lysates may run through a third protein. Here binding means that the protein was enriched with, or labelled near, the bait; the list need not be complete. For some of these results: A no says only that the protein was not detected with the bait. For some of these results: Tags and fused reporters may be left off the sequences shown.

By UniProt entry, the sequences of proteins in these tests, tags left out.
UniProt Q9GZN1: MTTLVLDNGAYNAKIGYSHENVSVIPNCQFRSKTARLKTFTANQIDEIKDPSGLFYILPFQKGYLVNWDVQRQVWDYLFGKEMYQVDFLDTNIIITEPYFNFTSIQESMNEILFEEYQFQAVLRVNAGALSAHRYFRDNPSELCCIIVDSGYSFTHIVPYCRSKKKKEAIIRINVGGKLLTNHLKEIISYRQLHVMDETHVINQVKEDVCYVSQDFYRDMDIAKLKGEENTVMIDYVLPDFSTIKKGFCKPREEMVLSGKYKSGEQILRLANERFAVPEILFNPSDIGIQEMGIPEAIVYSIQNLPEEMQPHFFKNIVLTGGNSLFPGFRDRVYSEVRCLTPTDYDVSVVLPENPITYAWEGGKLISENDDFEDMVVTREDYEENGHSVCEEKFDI
UniProt Q05BQ5: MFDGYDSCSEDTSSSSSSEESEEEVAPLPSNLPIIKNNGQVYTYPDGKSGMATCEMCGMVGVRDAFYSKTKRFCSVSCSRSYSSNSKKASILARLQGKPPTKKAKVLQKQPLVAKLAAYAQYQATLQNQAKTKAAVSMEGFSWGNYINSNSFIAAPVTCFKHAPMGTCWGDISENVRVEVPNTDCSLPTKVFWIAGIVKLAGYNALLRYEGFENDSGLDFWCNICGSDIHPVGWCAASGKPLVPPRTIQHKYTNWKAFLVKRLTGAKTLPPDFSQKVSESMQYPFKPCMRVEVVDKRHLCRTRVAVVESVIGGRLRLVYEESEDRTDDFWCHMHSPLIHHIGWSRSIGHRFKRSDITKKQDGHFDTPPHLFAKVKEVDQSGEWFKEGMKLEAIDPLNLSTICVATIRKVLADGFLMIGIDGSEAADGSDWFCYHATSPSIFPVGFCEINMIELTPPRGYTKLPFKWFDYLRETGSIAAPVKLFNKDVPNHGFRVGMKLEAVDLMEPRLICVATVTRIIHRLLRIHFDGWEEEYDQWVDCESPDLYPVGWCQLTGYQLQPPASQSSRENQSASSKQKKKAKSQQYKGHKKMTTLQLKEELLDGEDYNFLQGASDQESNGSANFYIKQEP
UniProt Q6ZRS2: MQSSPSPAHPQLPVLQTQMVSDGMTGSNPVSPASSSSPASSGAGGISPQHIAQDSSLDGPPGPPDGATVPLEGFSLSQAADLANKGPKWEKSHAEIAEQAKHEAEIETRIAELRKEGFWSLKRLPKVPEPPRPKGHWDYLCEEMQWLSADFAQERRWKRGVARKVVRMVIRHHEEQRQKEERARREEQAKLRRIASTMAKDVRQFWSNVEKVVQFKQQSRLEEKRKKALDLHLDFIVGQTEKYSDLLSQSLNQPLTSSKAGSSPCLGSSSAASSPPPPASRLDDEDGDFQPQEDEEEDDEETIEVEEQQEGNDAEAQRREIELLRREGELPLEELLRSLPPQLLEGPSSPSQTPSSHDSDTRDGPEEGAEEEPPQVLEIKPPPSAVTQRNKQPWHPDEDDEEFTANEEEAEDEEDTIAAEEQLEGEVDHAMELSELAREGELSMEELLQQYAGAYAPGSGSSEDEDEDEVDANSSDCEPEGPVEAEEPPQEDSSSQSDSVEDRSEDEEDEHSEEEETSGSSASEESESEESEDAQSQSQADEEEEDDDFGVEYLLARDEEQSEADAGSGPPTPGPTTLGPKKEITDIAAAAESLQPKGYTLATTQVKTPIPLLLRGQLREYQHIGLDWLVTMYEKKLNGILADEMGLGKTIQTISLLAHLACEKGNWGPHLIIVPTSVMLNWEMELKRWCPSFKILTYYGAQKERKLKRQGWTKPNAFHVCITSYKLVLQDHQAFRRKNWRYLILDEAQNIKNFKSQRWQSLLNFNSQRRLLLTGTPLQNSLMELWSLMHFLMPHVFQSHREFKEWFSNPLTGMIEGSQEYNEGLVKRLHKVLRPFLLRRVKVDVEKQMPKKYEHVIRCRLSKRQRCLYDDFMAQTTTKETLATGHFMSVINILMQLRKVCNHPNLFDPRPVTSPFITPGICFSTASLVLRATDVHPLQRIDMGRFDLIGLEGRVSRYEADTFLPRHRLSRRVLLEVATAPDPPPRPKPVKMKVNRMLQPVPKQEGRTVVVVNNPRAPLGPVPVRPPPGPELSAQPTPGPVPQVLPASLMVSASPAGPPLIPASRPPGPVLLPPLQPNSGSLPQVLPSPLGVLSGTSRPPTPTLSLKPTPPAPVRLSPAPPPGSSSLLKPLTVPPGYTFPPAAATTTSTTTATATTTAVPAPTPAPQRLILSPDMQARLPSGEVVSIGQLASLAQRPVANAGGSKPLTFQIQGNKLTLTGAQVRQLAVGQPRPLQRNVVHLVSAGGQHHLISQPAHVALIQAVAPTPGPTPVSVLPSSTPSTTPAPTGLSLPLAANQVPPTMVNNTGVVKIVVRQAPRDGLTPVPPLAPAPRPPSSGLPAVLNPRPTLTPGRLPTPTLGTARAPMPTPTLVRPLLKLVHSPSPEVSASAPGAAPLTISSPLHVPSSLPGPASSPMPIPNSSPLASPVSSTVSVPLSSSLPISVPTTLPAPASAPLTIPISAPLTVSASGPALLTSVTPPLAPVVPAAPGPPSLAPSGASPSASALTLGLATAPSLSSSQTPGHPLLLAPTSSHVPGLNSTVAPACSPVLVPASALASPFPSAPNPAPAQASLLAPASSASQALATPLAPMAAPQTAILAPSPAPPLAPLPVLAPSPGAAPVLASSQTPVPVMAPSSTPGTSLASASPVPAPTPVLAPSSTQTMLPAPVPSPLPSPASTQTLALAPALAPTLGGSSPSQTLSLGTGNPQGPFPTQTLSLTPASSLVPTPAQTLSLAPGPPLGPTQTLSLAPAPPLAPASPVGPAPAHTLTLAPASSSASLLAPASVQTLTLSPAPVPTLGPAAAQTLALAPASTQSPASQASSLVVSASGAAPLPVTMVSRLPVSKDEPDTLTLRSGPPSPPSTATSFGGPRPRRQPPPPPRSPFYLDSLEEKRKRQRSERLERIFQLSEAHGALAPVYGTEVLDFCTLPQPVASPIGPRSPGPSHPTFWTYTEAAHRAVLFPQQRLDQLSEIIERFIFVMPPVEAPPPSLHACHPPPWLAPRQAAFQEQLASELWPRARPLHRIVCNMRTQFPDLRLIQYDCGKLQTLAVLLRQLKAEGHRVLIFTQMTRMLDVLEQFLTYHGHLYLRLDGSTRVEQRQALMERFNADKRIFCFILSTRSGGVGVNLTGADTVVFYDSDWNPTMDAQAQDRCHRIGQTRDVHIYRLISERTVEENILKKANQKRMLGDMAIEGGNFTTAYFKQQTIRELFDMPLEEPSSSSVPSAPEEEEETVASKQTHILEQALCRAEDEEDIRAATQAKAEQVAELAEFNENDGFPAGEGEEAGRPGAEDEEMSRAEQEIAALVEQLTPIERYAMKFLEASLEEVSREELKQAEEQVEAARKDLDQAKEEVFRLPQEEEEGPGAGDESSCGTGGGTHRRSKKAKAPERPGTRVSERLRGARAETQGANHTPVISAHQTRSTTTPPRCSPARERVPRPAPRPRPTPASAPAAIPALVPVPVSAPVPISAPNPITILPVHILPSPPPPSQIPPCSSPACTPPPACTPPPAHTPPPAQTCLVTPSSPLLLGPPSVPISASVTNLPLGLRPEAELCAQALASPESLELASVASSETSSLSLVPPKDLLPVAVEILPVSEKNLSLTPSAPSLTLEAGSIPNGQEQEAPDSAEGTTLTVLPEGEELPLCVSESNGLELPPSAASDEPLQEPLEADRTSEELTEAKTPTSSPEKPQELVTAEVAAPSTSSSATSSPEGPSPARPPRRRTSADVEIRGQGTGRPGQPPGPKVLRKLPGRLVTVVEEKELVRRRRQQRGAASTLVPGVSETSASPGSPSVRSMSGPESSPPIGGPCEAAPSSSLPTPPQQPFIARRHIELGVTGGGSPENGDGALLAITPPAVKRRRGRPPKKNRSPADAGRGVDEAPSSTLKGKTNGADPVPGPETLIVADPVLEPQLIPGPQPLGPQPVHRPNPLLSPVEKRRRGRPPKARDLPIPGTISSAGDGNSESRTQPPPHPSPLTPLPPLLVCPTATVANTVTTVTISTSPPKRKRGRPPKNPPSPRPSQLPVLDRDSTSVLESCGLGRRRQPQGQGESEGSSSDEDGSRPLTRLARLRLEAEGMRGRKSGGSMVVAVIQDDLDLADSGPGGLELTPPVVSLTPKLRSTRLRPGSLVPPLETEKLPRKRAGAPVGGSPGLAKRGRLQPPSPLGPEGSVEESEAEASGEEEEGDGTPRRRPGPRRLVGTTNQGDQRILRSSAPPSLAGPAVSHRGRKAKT

Columns and labels:
[1] = target: T1, GFP–JAZF1 (UniProt Q86VZ6); experiment: affinity purification with mass spectrometry; SILAC-labelled HeLa Kyoto cells transiently expressing GFP or GFP–JAZF1; single-step affinity purification of soluble nuclear proteins on GFP nanotrap beads; ratio cutoff 4
T1 sequence: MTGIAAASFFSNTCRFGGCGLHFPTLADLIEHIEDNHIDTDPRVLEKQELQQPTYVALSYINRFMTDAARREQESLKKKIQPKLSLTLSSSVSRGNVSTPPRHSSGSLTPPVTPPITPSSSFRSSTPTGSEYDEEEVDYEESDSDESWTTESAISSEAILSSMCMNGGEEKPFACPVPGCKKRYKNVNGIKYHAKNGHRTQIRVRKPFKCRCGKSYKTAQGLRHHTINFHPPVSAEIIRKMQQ

[2] = target: GFP–H2A.X (human) (UniProt P16104); experiment: affinity purification with mass spectrometry; SILAC-labelled HeLa Kyoto cells stably expressing GFP, GFP–H2A, –H2A.X, –H2A.Bbd or –H2A.Z.1; single-step affinity purification of soluble (chromatin-free) nuclear proteins on GFP nanotrap beads; ratio cutoff 4 and 0.25 (forward and reverse)

| Substance | binding [1] | binding [2] |
| --- | --- | --- |
| ACTR6 (from UniProt Q9GZN1 1-396) | no binding | – |
| MBT-domain-containing protein MBTD1 (from UniProt Q05BQ5 1-628) | binds | – |
| MCM2 (from UniProt P49736 1-904) | – | binds |
| SRCAP (from UniProt Q6ZRS2 1-3230) | no binding | – |
